Screening data, single-dose tests

By UniProt entry, the sequences of proteins in these tests, tags left out. Residues count along the entry.
UniProt I6X8D2, whole entry: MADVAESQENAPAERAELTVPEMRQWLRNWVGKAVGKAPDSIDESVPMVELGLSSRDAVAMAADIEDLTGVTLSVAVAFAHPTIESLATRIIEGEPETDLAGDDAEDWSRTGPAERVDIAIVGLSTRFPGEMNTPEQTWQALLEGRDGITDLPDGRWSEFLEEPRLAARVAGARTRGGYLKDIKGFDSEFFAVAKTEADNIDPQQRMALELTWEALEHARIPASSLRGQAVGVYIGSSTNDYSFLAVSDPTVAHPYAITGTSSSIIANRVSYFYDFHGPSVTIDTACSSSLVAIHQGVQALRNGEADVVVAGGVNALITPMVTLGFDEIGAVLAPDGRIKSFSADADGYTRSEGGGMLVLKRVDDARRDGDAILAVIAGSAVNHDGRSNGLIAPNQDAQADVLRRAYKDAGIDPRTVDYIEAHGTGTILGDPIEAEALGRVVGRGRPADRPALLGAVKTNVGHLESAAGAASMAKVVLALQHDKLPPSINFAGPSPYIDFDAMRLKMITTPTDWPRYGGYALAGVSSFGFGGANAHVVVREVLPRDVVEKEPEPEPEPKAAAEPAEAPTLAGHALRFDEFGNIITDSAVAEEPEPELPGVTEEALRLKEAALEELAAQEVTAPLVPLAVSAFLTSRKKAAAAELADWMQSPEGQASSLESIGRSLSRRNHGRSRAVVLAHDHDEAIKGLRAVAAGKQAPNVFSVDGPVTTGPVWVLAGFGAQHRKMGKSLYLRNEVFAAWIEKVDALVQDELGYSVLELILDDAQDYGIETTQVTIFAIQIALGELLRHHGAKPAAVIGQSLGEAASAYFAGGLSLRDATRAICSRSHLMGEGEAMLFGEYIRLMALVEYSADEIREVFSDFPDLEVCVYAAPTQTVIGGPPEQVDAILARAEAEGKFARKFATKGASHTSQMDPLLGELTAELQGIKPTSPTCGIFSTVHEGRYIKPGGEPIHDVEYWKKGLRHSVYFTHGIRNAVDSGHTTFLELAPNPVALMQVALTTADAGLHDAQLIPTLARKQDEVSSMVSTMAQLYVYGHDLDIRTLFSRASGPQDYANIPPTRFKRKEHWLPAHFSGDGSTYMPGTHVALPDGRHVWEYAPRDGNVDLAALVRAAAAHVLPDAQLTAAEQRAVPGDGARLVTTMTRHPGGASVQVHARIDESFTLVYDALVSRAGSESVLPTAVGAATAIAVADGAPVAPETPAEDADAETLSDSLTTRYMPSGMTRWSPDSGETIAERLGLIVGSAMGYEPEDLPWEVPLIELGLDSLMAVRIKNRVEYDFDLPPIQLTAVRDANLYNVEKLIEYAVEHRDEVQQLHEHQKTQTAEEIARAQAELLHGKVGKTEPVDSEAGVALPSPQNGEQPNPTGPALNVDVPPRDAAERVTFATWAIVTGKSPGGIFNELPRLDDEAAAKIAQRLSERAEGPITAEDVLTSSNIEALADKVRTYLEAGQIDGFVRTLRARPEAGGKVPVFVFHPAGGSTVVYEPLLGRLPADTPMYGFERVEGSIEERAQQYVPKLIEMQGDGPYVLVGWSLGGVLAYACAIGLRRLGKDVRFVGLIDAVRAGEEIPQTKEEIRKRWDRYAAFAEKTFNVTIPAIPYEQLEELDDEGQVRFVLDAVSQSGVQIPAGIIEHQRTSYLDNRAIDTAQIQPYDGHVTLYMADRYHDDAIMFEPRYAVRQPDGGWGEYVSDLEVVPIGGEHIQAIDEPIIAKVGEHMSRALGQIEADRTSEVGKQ
UniProt P9WFT3, whole entry: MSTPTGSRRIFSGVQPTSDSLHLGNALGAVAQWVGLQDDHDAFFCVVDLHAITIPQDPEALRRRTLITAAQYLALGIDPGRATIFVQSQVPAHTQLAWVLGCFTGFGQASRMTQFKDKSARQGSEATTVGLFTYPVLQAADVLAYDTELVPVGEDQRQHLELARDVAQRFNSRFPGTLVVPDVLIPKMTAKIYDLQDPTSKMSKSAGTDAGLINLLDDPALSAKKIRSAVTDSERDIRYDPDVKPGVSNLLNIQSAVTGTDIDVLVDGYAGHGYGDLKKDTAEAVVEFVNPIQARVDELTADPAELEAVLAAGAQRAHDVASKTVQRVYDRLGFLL
UniProt P9WNZ1, whole entry: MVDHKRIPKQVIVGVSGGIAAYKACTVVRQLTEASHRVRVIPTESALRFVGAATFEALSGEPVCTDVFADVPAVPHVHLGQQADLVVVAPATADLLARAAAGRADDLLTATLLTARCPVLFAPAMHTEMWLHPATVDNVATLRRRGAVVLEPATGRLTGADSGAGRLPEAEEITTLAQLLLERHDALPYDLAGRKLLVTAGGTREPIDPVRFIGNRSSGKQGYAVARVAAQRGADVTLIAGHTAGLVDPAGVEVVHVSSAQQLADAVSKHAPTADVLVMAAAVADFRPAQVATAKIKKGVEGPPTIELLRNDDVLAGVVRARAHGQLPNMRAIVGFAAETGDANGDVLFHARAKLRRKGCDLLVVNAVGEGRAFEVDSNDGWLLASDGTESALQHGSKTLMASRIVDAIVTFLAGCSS
UniProt Q8IDJ8, 1-583: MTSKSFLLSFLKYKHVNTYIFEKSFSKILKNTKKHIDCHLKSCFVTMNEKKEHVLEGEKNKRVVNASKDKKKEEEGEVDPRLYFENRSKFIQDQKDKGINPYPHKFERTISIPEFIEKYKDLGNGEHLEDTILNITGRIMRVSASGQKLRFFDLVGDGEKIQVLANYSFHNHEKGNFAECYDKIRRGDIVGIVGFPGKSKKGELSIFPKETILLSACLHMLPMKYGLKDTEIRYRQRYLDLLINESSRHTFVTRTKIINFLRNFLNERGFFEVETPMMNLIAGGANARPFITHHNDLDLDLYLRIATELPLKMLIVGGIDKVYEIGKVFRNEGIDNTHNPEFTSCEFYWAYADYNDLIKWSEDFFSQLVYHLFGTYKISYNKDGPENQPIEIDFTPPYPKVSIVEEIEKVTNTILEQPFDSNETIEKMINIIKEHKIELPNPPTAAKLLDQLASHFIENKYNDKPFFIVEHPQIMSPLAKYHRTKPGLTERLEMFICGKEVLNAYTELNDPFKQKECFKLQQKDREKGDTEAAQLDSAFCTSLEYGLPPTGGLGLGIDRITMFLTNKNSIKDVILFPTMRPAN

Pks13 thioesterase: 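Enzyme assay of the thioesterase domain of polyketide synthase 13; the read-out is not stated. Target: Polyketide synthase Pks13, Mycobacterium tuberculosis (UniProt I6X8D2). Compounds at 30 µM. Higher reads as stronger inhibition (inferred from which compounds were picked for retests). Of about 67,000 compounds tested this way, about 300 (0.46%) reached 50% or more in at least one test.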
MtTrpRS: 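Enzyme assay of tryptophanyl-tRNA synthetase; the read-out is not stated. Target: Tryptophan-tRNA ligase, Mycobacterium tuberculosis (UniProt P9WFT3). Concentration: 10 µM. Direction is not recorded; retested compounds ran higher, which suggests that high means inhibition. Of about 65,000 compounds tested this way, about 64 (0.098%) reached 50% or more in at least one test.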
CoaBC: 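Coenzyme A biosynthesis protein CoaBC, Mycobacterium tuberculosis (UniProt P9WNZ1). Enzyme assay of CoaBC with a phosphate dye (Biomol Green) read at 650 nm. Tested at 30 µM. Direction is inferred from only a few compounds that gave an IC50; most scored high, so higher reads as stronger inhibition. Most strong results did not repeat in a second test. Size under these conditions: about 67,000 compounds, about 40 of them at 50% or above in at least one test.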
PfKRS1: 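Enzyme assay of the cytosolic lysyl-tRNA synthetase in 384-well plates, read by luminescence. Target: Lysine-tRNA ligase, Plasmodium falciparum 3D7 (UniProt Q8IDJ8). Compounds at 30 µM. Higher reads as stronger inhibition, judged from the few compounds that gave an IC50. About 69,000 compounds were tested under these conditions; 0.071% (about 49) showed 50% or more at least once.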

The filed quantity is “Percent Effect” (%). How 0% and 100% were set is not recorded. Most values in the screen are low, and negative values occur. The compounds are a random part of those screened. Two or more numbers in one place are separate tests of the same structure; such repeats can differ widely. A dash means the value is not listed here; it may have been measured.

CN(C)C(=O)C1(c2cnccn2)CCCN1C(=O)Cc1ccsc1 (stereo unspecified) gave Pks13 thioesterase: -0.9002%; MtTrpRS: -9.399%; CoaBC: -8.41%; PfKRS1: 0.1423%. For Cn1cccc1CCC(=O)N1CCC2(CC1)c1ccccc1CC2O (stereo unspecified) the result was Pks13 thioesterase: -0.003257%; MtTrpRS: 3.065%; CoaBC: 2.727%; PfKRS1: 3.524%. Cc1ccc2c(c1)OCCCC2NCc1nccn1CC(C)C (stereo unspecified) gave Pks13 thioesterase: -5.924%; MtTrpRS: -2.23%; CoaBC: -5.042%; PfKRS1: 6.07%. OCC1CCCCN1CCCNCc1cc(O)c2cc(F)ccc2n1 (stereo unspecified) read Pks13 thioesterase: 3.359%; MtTrpRS: 2.517%; CoaBC: -0.3659%; PfKRS1: 2.648%. Result for O=C(NCCc1ccccn1)NC1CCN(c2ncccn2)CC1 was Pks13 thioesterase: -10.01%; MtTrpRS: -0.2467%; CoaBC: 9.677%; PfKRS1: 3.327%. Result for COc1cc(S(=O)(=O)N2CCc3ccc(Cl)cc32)cc(C(=O)O)c1OC was Pks13 thioesterase: -14.7%; MtTrpRS: -0.5363%; CoaBC: -0.5222%; PfKRS1: 4.259%.

Result for O=C(NCCc1ccccn1)c1n[nH]c2c1CCC2 was Pks13 thioesterase: -7.226%; MtTrpRS: 0%; CoaBC: 28.07% and 8.763%; PfKRS1: 3.941%. CN[C@@H](CO)C(=O)NCc1cc2n(n1)CCCN(C1CCCCC1)C2 read Pks13 thioesterase: -12.13%; MtTrpRS: 2.054%; CoaBC: 4.693%; PfKRS1: 10.15%. c1cncc(OCC2CN(Cc3nccs3)Cc3nccn3C2)c1 (stereo unspecified) read Pks13 thioesterase: -7.397%; MtTrpRS: -4.344%; CoaBC: 3.822%; PfKRS1: 0.09435%. With O=C(NCCNc1cccnc1)C(c1cccnc1)N1CCCC1 (stereo unspecified) the screen gave Pks13 thioesterase: 9.771%; MtTrpRS: -3.857%; CoaBC: 3.507%; PfKRS1: 8.817%. CC(C)(C)OC(=O)NC1(c2noc(-c3ccoc3)n2)CCC1 read Pks13 thioesterase: 0.9684%; MtTrpRS: -2.542%; CoaBC: -3.226%; PfKRS1: 6.056%. With CCC(CNC(=O)c1ccc(F)cc1F)N1CCc2ccccc2C1 (stereo unspecified) the screen gave Pks13 thioesterase: 19.85%; MtTrpRS: -3.086%; CoaBC: 6.731%; PfKRS1: 7.658%.

O=C(C1CCS(=O)(=O)C1)N1CCN(c2cnccn2)CC1 (stereo unspecified) read Pks13 thioesterase: 4.187%; MtTrpRS: -2.624%; CoaBC: 2.361%; PfKRS1: -0.6976%. For CC(=O)N1N=C(c2ccccc2)OC1C(=O)NCC(=O)OC(C)(C)C (stereo unspecified) the result was Pks13 thioesterase: 37.48%; CoaBC: 0.2427%; PfKRS1: 1.386%. With CO[C@H]1CCN(Cc2ccccn2)[C@@H]2CN(Cc3ccco3)C[C@H]12 the screen gave Pks13 thioesterase: -34.19%; MtTrpRS: 2.211%; CoaBC: -1.211%; PfKRS1: 5.283%. Result for COC1CCCN(C(=O)NCC(C)(C)SC)C1 (stereo unspecified) was Pks13 thioesterase: -25.22%; MtTrpRS: 1.332%; CoaBC: -0.9926%; PfKRS1: -2.138%. For Cn1nccc1-c1ncc2c(c1C(=O)O)CCN(Cc1ccncc1)C2 the result was Pks13 thioesterase: -14.14%; MtTrpRS: -0.2116%; CoaBC: -0.4167%; PfKRS1: 3.021%. Cc1cc(CN2CCN(CCOc3cccc(C#N)c3)CC2)no1 gave Pks13 thioesterase: -12.52%; MtTrpRS: -2.437%; CoaBC: 6.177%; PfKRS1: 7.253%.

Result for OCCN1CCN(CC(O)c2ccc(C(F)(F)F)cc2)CC1 (stereo unspecified) was Pks13 thioesterase: -42.66%; MtTrpRS: 2.569%; CoaBC: -1.394%; PfKRS1: -3.744%. Cc1cccnc1NC(=O)C1CCCN(c2cccc(C(F)(F)F)n2)C1 (stereo unspecified) gave Pks13 thioesterase: -2.61%; MtTrpRS: 3.306%; CoaBC: 4.232%; PfKRS1: 6.969%. For Cc1ccc(CCC(=O)N2CCn3c(nnc3C(C)C)C2)cc1Cl the result was Pks13 thioesterase: -11.91%; MtTrpRS: -0.6221%; CoaBC: 0.6053%; PfKRS1: 3.539%. For COCCN(Cc1cccc(C#N)c1)Cc1nnsc1Cl the result was Pks13 thioesterase: 13.85%; MtTrpRS: 5.779%; PfKRS1: -0.7206%. CN(C)CC(=O)N1CCc2ncnc(-c3cncnc3)c2CC1 read Pks13 thioesterase: -21.17%; MtTrpRS: 4.017%; CoaBC: -34.88%; PfKRS1: 5.44%. For Cc1ccc(-c2c[nH]c([C@@H]3COCCN3Cc3cccnc3)n2)cc1 the result was Pks13 thioesterase: 21.72%; MtTrpRS: 2.975%; CoaBC: -4.519%; PfKRS1: 4.632%.

For CCN1CCOC(CNCc2ccc(OC)c(F)c2)C1 (stereo unspecified) the result was Pks13 thioesterase: -16.21%; MtTrpRS: -1.906%; CoaBC: 3.175%; PfKRS1: 6.37%. Cc1c(C(=O)N(C)CC(F)(F)F)nnn1-c1ccccc1Cl gave MtTrpRS: -1.917%; PfKRS1: -0.4431%.

The last 2 entries again:

compound	Pks13 thioesterase	MtTrpRS	CoaBC	PfKRS1
CCN1CCOC(CNCc2ccc(OC)c(F)c2)C1 (stereo unspecified)	-16.21%	-1.906%	3.175%	6.37%
Cc1c(C(=O)N(C)CC(F)(F)F)nnn1-c1ccccc1Cl	-	-1.917%	-	-0.4431%

Data taken from ChEMBL document CHEMBL3988442, “University of Dundee, Small-Polar-MMV Screening Library” (2021).